We go through 21 compounds from PubChem BioAssay AID244 (DTP/NCI, 2004).

The list does not hold the whole screen: it gathers tests that were run many times, whatever their T/C, doses with no T/C, and many T/C values between a quarter and a half above the control. Other doses and runs of a compound stand elsewhere. T/C: endpoint of the treated group in % of that of the vehicle group. Some doses have a count of surviving animals in place of a T/C: the source files T/C as zero there, which appears to mark a toxic dose or a test without result, not a measured value. Some survivor counts are full or nearly so, which does not show that the dose was tolerated: the source hardly ever lists a survival T/C far under the control, and the zero likely stands for such cases as well. Counts of survivors are from the toxicity check (mostly the fifth day) where no day follows; animals may have died later. Schedules are NCI's codes, read here as Q, the interval in days (D) or hours (H), X, the number of doses. Counts like (3×) give the number of equal values in this list. Some doses were run more than once; the results are listed from low to high. For survival time, the PubChem record calls one and a half times the control and up active, and a quarter to a half above the control has no call in these data; cut-offs in other NCI protocols can differ. Some T/C values carry the count of animals alive at the toxicity check (mostly the fifth day); without a count, all were alive then. *1 amine or outer side, *2 acyl side, *3 side chain or, on linkers, in order; H or OH if unused. Where a SMILES comes first, the peptide text is derived from it. Bridges are numbered along the chain shown (N, C = ends). Roman numbers before positions name the chains, in order. [ ]: non-standard residue; d: D form. Actinocin(9to1) = Cc1c2oc3c(C)ccc(C(=O)[*:1])c3nc-2c(C(=O)[*:2])c(N)c1=O; aThr = C[C@H](O)[C@H](N)C(=O)O; NMeV = CN[C@H](C(=O)O)C(C)C; Sar = CNCC(=O)O

The subject of the assay is CD2F1 mice, Lymphoma 8 ip, survival T/C. Put plainly: NCI In Vivo Anticancer Drug Screen. Data for tumor model Lymphoma 8 (intraperitoneal) in CD2F1 (CDF1) mice. To be noted: higher T/C = longer survival. Here is the method:
The antitumor activity of compounds was measured in mice bearing transplantable tumors. Survival or tumor size were measured and the results are expressed as the measurement made in the treated group (T) divided by the measurement made in the vehicle treated control group (C). The tumor model used in this assay is Lymphoma 8 (intraperitoneal) in CD2F1 (CDF1) mice

The mark [1] stands for this setting: T/C endpoint: median survival time, dose: 800.0 mg/kg/injection, schedule: Q01DX005 (ip), vehicle: water.

As for `N=[N+]=CC(=O)OCC(N)C(=O)O` (stereo unspecified), the T/C runs as follows: (T/C endpoint: median survival time, dose: 1.0 mg/kg/injection, schedule: Q14DX016 (ip), vehicle: saline) 139 % of control; (T/C endpoint: median survival time, dose: 4.0 mg/kg/injection, schedule: Q14DX016 (ip), vehicle: saline) 142 % of control. Also, the survivor count runs as follows: (T/C endpoint: median survival time, dose: 8.0 mg/kg/injection, schedule: Q14DX016 (ip), vehicle: saline) 6 of 6; (T/C endpoint: median survival time, dose: 16.0 mg/kg/injection, schedule: Q14DX016 (ip), vehicle: saline) 6 of 6.

Regarding `Cc1c2oc3c(C)ccc(C(=O)N[C@@H]4C(=O)N[C@H](C(C)C)C(=O)N5CCC[C@H]5C(=O)N(C)CC(=O)N(C)[C@@H](C(C)C)C(=O)O[C@H]4C)c3nc-2c(C(=O)N[C@@H]2C(=O)N[C@H](C(C)C)C(=O)N3CCC[C@H]3C(=O)N(C)CC(=O)N(C)[C@@H](C(C)C)C(=O)O[C@H]2C)c(N)c1=O` (I: [aThr][dV]P[Sar][NMeV] / II: [aThr][dV]P[Sar][NMeV]; ester I:1-I:C, II:1-II:C; linker I:N-II:N via Actinocin(9to1)), where the note is “T/C endpoint: median survival time, dose: 0.1 mg/kg/injection, schedule: Q01DX002 (ip), vehicle: saline”, the T/C was 126 % of control.

Take `O=CC(S)CO` (stereo unspecified): the survivor count by setting is: (T/C endpoint: median survival time, dose: 200.0 mg/kg/injection, schedule: Q01DX010 (ip), vehicle: saline) 4 of 6; (T/C endpoint: median survival time, dose: 400.0 mg/kg/injection, schedule: Q01DX010 (ip), vehicle: saline) 0 of 6.

Turning to `O=c1[nH]cc(F)c(=O)[nH]1`, under “T/C endpoint: median survival time, dose: 60.0 mg/kg/injection, schedule: Q04DX003 (ip), vehicle: saline”, the T/C was 138 % of control.

Consider `CNC(=O)CC(N)C(=O)O` (stereo unspecified), for which the survivor count (T/C endpoint: median survival time, dose: 1200.0 mg/kg/injection, schedule: Q01DX005 (ip), vehicle: saline) is given as 6 of 6.

In the case of `CC(=O)Nc1c(Cl)cc2c(c1Cl)Cc1cc([N+](=O)[O-])ccc1-2`, the survivor count by setting is: (T/C endpoint: survival time, mean or median, dose: 7.8 mg/kg/injection, schedule: Q01DX010 (ip), vehicle: saline) 8 of 8; (T/C endpoint: survival time, mean or median, dose: 15.6 mg/kg/injection, schedule: Q01DX010 (ip), vehicle: saline) 8 of 8; (T/C endpoint: survival time, mean or median, dose: 31.3 mg/kg/injection, schedule: Q01DX010 (ip), vehicle: saline) 8 of 8.

Regarding `NC(C(=O)O)C(F)(F)C(=O)O` (stereo unspecified), the survivor count (T/C endpoint: median survival time, dose: 50.0 mg/kg/injection, schedule: Q01DX009 (ip), vehicle: saline) is on record as 1 of 3; the survivor count (T/C endpoint: median survival time, dose: 100.0 mg/kg/injection, schedule: Q01DX009 (ip), vehicle: saline) is given as 2 of 3; the survivor count (T/C endpoint: median survival time, dose: 200.0 mg/kg/injection, schedule: Q01DX009 (ip), vehicle: saline) is given as 0 of 3.

With `N=[N+]=CC(=O)CCC(NC(=O)C(CCC(=O)C=[N+]=N)NC(=O)CCC(N)C(=O)O)C(=O)O` (stereo unspecified), the T/C was 130 % of control (T/C endpoint: median survival time, dose: 2.5 mg/kg/injection, schedule: Q04DX002 (ip), vehicle: saline, evaluated on day 60); 138 % of control (T/C endpoint: median survival time, dose: 2.5 mg/kg/injection, schedule: Q04DX002 (ip), vehicle: saline, run until all animals had died); 125 % of control (T/C endpoint: median survival time, dose: 5.0 mg/kg/injection, schedule: Q01DX006 (ip), vehicle: saline); 146 % of control (T/C endpoint: median survival time, dose: 5.0 mg/kg/injection, schedule: Q04DX002 (ip), vehicle: saline, evaluated on day 60); 138 % of control (T/C endpoint: median survival time, dose: 5.0 mg/kg/injection, schedule: Q04DX002 (ip), vehicle: saline, run until all animals had died); 135 % of control (T/C endpoint: median survival time, dose: 20.0 mg/kg/injection, schedule: Q01DX006 (ip), vehicle: saline). In addition, the T/C by setting is: (T/C endpoint: median survival time, dose: 20.0 mg/kg/injection, schedule: Q04DX003 (ip), vehicle: saline) 146 % of control; (T/C endpoint: median survival time, dose: 27.0 mg/kg/injection, schedule: Q04DX002 (ip), vehicle: saline) 132 % of control; (T/C endpoint: median survival time, dose: 40.0 mg/kg/injection, schedule: Q01DX001 (ip), vehicle: saline) 146 % of control [4 of 6 alive]; (T/C endpoint: median survival time, dose: 40.0 mg/kg/injection, schedule: Q01DX006 (ip), vehicle: saline) 142 % of control; (T/C endpoint: median survival time, dose: 40.0 mg/kg/injection, schedule: Q04DX002 (ip), vehicle: saline) 132 % of control. For the same compound, the survivor count is, setting by setting: (T/C endpoint: median survival time, dose: 60.0 mg/kg/injection, schedule: Q04DX002 (ip), vehicle: saline) 6 of 6; (T/C endpoint: median survival time, dose: 80.0 mg/kg/injection, schedule: Q01DX001 (ip), vehicle: saline) 4 of 6.

In the case of `O=C1NC(O)CCN1C1OC(CO)C(O)C1O` (stereo unspecified), the survivor count reads like this: (T/C endpoint: median survival time, dose: 10.0 mg/kg/injection, schedule: Q04DX008 (ip), vehicle: saline) 6 of 10; (T/C endpoint: median survival time, dose: 300.0 mg/kg/injection, schedule: Q04DX008 (ip), vehicle: saline) 6 of 10; (T/C endpoint: median survival time, dose: 1000.0 mg/kg/injection, schedule: Q04DX008 (ip), vehicle: saline) 6 of 10.

As to `NC(CC(=O)O)C(=O)O` (stereo unspecified), the survivor count runs as follows: (T/C endpoint: median survival time, dose: 400.0 mg/kg/injection, schedule: Q01DX005 (ip), vehicle: water) 5 of 10; under setting [1], 0 of 10.

Consider `CC[C@]1(O)C[C@H]2CN(CCc3c([nH]c4ccccc34)[C@@](C(=O)OC)(c3cc4c(cc3OC)N(C=O)[C@H]3[C@@](O)(C(=O)OC)[C@H](OC(C)=O)[C@]5(CC)C=CCN6CC[C@]43[C@@H]65)C2)C1`, for which the T/C is 122 % of control (T/C endpoint: median survival time, dose: 0.25 mg/kg/injection, schedule: Q01DX005 (ip), vehicle: saline, evaluated on day 5); 116 % of control (T/C endpoint: median survival time, dose: 0.25 mg/kg/injection, schedule: Q01DX005 (ip), vehicle: saline, evaluated on day 30); 115 and 116 % of control (T/C endpoint: median survival time, dose: 0.25 mg/kg/injection, schedule: Q01DX005 (ip), vehicle: saline, evaluated on day 60); 125 % of control (T/C endpoint: median survival time, dose: 0.5 mg/kg/injection, schedule: Q01DX005 (ip), vehicle: saline). Also, under “T/C endpoint: median survival time, dose: 1.0 mg/kg/injection, schedule: Q01DX005 (ip), vehicle: saline”, the survivor count is given as 6 of 6.

As for `N[C@H](C(=O)O)[C@@H]1CC(Cl)=NO1`, the T/C (T/C endpoint: median survival time, dose: 3.0 mg/kg/injection, schedule: Q01DX009 (ip), vehicle: saline) is 133 % of control.

For `S=c1nc[nH]c2nc[nH]c12`, the survivor count (T/C endpoint: median survival time, dose: 135.0 mg/kg/injection, schedule: Q04DX002 (ip), vehicle: saline) is 6 of 6.

As for `NC(CC(=O)CCl)C(=O)O` (stereo unspecified), where the note is “T/C endpoint: median survival time, dose: 50.0 mg/kg/injection, schedule: Q01DX005 (ip), vehicle: saline”, the survivor count is recorded as 1 of 6.

On to `O=C1C=CC(=O)N1`, for which the survivor count reads like this: (T/C endpoint: median survival time, dose: 4.0 mg/kg/injection, schedule: Q01DX009 (ip), vehicle: saline) 6 of 6 (2×); (T/C endpoint: median survival time, dose: 8.0 mg/kg/injection, schedule: Q01DX009 (ip), vehicle: saline) 0 of 6 and 1 of 6.

`O=NN(CCCl)C(=O)NCCCl`: the T/C was 130 % of control (T/C endpoint: median survival time, dose: 6.25 mg/kg/injection, schedule: Q01DX001 (ip), vehicle: saline); 137 % of control (T/C endpoint: median survival time, dose: 6.25 mg/kg/injection, schedule: Q01DX005 (ip), vehicle: saline); 130 % of control (T/C endpoint: survival time, mean or median, dose: 12.5 mg/kg/injection, schedule: Q01DX010 (ip), vehicle: saline). Besides, the survivor count is, setting by setting: (T/C endpoint: median survival time, dose: 50.0 mg/kg/injection, schedule: Q01DX001 (ip), vehicle: saline) 6 of 6; (T/C endpoint: survival time, mean or median, dose: 25.0 mg/kg/injection, schedule: Q01DX010 (ip), vehicle: saline) 6 of 6; (T/C endpoint: survival time, mean or median, dose: 50.0 mg/kg/injection, schedule: Q01DX010 (ip), vehicle: saline) 6 of 6.

As to `Nc1ncn(C2OC(CO)C(O)C2O)c(=O)n1` (stereo unspecified), the T/C (T/C endpoint: median survival time, dose: 1.5 mg/kg/injection, schedule: Q01DX005 (ip), vehicle: saline) is 133 % of control. In addition, the survivor count (T/C endpoint: median survival time, dose: 6.0 mg/kg/injection, schedule: Q01DX005 (ip), vehicle: saline) was 10 of 10.

Consider `COc1cc2c(c3c1c(=O)c1ccccc1n3C)C=CC(C)(C)O2`, for which the survivor count reads like this: (T/C endpoint: median survival time, dose: 200.0 mg/kg/injection, schedule: Q01DX009 (ip), vehicle: Klucel (hydroxypropylcellulose) (HPC)) 0 of 10; (T/C endpoint: median survival time, dose: 400.0 mg/kg/injection, schedule: Q01DX009 (ip), vehicle: Klucel (hydroxypropylcellulose) (HPC)) 0 of 10.

`Nc1nc(=S)c2ncn(C3OC(CO)C(O)C3O)c2[nH]1` (stereo unspecified): the T/C (T/C endpoint: survival time, mean or median, dose: 2.0 mg/kg/injection, schedule: Q01DX010 (ip), vehicle: saline) is 136 % of control.

On to `O=c1[nH]c(=O)n(C2CC(O)C(CO)O2)cc1F` (stereo unspecified), for which, where the note is “T/C endpoint: survival time, mean or median, dose: 40.0 mg/kg/injection, schedule: Q01DX010 (ip), vehicle: saline”, the T/C was 127 % of control.

Consider `NC(CC(=O)NO)C(=O)O` (stereo unspecified), for which, under setting [1], the T/C is 125 % of control.
